The target in experiment [1] is T1, ARF7-HA (AUXIN RESPONSE FACTOR 7) (Arabidopsis thaliana) (UniProt P93022).
T1 sequence: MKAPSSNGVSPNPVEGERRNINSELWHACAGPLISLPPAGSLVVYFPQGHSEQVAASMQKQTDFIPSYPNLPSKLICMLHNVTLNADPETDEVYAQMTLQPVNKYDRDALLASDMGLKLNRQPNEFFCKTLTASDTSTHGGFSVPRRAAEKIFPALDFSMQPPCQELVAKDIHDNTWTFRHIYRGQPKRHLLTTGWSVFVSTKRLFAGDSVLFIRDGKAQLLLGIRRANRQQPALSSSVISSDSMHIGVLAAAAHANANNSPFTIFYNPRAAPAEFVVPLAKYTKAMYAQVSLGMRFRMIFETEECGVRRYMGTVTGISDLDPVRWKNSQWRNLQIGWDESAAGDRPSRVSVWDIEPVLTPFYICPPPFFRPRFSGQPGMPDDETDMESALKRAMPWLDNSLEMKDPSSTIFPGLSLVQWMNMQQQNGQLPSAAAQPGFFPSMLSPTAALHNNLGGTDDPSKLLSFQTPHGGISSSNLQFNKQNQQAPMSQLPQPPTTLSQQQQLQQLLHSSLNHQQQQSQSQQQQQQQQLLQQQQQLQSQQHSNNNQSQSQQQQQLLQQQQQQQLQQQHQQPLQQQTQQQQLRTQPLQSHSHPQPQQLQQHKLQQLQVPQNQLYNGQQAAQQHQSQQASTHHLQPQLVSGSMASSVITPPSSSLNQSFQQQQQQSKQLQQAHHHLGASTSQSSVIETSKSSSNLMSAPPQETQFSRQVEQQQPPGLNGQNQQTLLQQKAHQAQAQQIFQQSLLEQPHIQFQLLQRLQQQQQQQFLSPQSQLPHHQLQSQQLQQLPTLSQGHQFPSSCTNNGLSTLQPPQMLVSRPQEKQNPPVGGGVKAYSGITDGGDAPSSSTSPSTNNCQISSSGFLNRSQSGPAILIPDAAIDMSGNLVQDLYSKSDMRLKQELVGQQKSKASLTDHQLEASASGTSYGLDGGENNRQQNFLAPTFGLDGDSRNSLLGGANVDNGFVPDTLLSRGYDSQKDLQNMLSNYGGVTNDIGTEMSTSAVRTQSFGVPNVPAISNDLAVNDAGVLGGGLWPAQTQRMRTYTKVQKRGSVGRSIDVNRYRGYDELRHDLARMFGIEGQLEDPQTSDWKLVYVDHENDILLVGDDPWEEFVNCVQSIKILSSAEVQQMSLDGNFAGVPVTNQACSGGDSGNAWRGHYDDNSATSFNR
Briefly: co-IP; plant extract (1.0-2.0 mg protein) incubated with anti-GFP or anti-HA antibody, then Dynabeads Protein G and 2 μg GST, GST-AFF1 or GST-ΔF-box-AFF1 added for 2 hr at 4 °C; six washes; immunoblot with anti-GST; only the binder purified. For orientation: A western blot detects proteins with antibodies after separation by electrophoresis.

Experiment [2] deals with T2, ARF19 as BiFC fusions (nEYFP-ARF19 and cEYFP-ARF19) (Arabidopsis thaliana) (UniProt Q8RYC8).
T2 sequence: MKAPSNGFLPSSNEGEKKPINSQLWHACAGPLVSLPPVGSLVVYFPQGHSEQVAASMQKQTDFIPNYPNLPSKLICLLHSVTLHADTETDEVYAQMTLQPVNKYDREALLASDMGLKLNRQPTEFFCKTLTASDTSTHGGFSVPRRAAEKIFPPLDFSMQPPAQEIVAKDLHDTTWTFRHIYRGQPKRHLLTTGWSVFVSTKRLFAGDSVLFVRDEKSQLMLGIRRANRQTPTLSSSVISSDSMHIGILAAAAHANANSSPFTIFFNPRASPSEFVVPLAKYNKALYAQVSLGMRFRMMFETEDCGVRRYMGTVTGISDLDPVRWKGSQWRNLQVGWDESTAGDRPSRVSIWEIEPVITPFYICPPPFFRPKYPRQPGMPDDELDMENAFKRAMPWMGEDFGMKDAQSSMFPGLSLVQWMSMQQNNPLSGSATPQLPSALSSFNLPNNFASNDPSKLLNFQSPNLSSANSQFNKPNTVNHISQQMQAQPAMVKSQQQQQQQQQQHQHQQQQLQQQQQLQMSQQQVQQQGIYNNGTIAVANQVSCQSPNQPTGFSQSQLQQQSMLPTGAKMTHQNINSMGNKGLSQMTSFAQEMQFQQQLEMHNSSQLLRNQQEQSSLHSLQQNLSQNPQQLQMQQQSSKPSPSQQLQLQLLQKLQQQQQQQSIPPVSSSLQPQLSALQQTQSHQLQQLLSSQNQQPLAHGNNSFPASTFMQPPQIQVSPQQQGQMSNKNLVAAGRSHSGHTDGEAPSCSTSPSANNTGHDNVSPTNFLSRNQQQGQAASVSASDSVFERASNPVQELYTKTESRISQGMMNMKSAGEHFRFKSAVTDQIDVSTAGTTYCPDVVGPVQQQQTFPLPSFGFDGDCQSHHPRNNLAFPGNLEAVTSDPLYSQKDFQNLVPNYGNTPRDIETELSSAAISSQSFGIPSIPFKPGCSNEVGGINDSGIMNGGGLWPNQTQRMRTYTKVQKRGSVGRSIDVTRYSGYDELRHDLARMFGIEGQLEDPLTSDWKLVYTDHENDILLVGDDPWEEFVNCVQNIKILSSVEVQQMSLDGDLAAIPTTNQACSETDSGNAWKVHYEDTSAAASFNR
Briefly: split reporter; BiFC with nEYFP and cEYFP fusions co-infiltrated with the p19 strain into 3-week-old Nicotiana benthamiana leaves, 22 °C, 3 d; confocal microscopy; nuclear marker WPP-mCherry.

For experiment [3], the target named is GST-ΔF-box-AFF1 (Arabidopsis thaliana). The experiment is described as follows: pull-down; 2 μg purified GST fusion immobilised on glutathione agarose, mixed with 1-2 mg total protein of arf19-1 35S:YFP-ARF19 plant lysate, 4 °C, 2 hr; six washes (PBS pH 7.4, 150 mM NaCl, 0.2% Triton X-100); immunoblot with anti-GFP and anti-GST; only the target purified.

No constants are given. Whether binding was seen depends on the method and setting. Binding seen in cells or lysates may run through a third protein. Binding calls can cover weak binding; strength is not graded here. Sequences can lack the tags named with a protein.

With “GST-ΔF-box-AFF1 (Arabidopsis thaliana) (domain or fragment)”, in experiment [1], the binding result is on record as “binds”. Consider “nEYFP-ΔF-box-AFF1 (Arabidopsis thaliana) (domain or fragment)”, for which the binding result in experiment [2] is reported as “binds”.

B1: YFP-ARF19 (AUXIN RESPONSE FACTOR 19) (protein, UniProt Q8RYC8 1-1086)
chain: T2 sequence
Regarding B1, the binding entry in experiment [3] was “binds”.

(Values after PMC9273615, “Regulation of AUXIN RESPONSE FACTOR condensation and nucleo-cytoplasmic partitioning” (Nature Communications, 2022).)
